What was measured:
[1] = tested on: L. infantum promastigotes; test: Leishmanicidal activity against promastigotes (MTT), L. infantum; type: cell-based, Leishmania infantum; conditions: CC50 THP‐1 / IC50 L. infantum promastigotes
Description: (§1) The synthesized compounds were tested for their antileishmanial activity against promastigotes of L. major and L. infantum at four concentrations (1, 10, 50, and 100 µM) for 48 h using the 3‐(4,5‐dimethylthiazol‐2‐yl)‐2,5‐diphenyltetrazolium bromide (MTT) assay. In this evaluation, the activity was expressed in IC50 (concentration inhibiting the parasite growth by 50%). […] The CC50 was defined as the concentration of selenoesters that led to a reduction in the viability of the macrophages, such that only 50% of the cells survived when compared to the control group. This cell line, derived from the blood of a human with acute monocytic leukemia, was chosen as it has been widely reported that it resembles tissue macrophages to various extents as well as supports the infection by numerous Leishmania promastigotes. The selectivity indexes (SIs) were calculated as the ratio between toxicity on macrophages (THP‐1 cells)/antileishmanial activity. The data for standard control drugs (miltefosine and paromomycin) are included for comparison purposes.
(§2) The promastigotes of L. major (clone VI, MHOM/IL/80/Friendlin) and L. infantum (BCN‐150) were grown at 26°C under continuous shaking in M199 1× medium (Sigma, USA). This media was supplemented with 10% of heat‐inactivated fetal bovine serum (FBS) (Gibco, USA), 0.0005% (w/v) hemin, 0.1 mM adenine, 25 mM HEPES (pH 7.2), 0.0001% (w/v) biotin, and 100 UI/mL penicillin and […] streptomycin (Gibco, USA).
(§3) The antileishmanial activity of the reported selenoesters was determined using the MTT assay as previously described during the logarithmic growth phase of the tested promastigotes of L. major and L. infantum. Briefly, the Leishmania parasites were seeded into 96‐well flat‐bottom plates (3 × 10^5 parasites/100 µL) and treated with four different concentrations ranging between 1 and 100 µM of each selenoester at 26°C for 48 h. Afterwards, 20 µL of MTT (5 mg/mL in PBS) was added to each well and incubated for 4 h under the same conditions. […] The absorbances were determined on a Multiskan EX photometric plate reader for microplates at 540 nm. […]

L. major promastigotes = test: Leishmanicidal activity against promastigotes (MTT), L. major; type: cell-based, Leishmania major; conditions: CC50 THP‐1 / IC50 L. major promastigotes
Description: as §1, §2, §3

O=C(C[Se]C(=O)c1ccccc1)Nc1cccc(OC(F)(F)F)c1 [Compound 3, Se‐(2‐oxo‐2‐((3‐(trifluoromethoxy)phenyl)amino)ethyl)benzoselenoate]
SI L. infantum [1]: > 30.35 | SI L. major (L. major promastigotes): > 20.68

O=C(C[Se]C(=O)c1ccco1)Nc1cccc(OC(F)(F)F)c1 [Compound 6, Se‐(2‐oxo‐2‐((3‐(trifluoromethoxy)phenyl)amino)ethyl)furan‐2‐carboselenoate]
SI L. infantum [1]: 6.47 | SI L. major (L. major promastigotes): 3.83

O=C(C[Se]C(=O)c1ccco1)Nc1ccc([N+](=O)[O-])c(C(F)(F)F)c1 [Compound 5, Se‐(2‐((4‐nitro‐3‐(trifluoromethyl)phenyl)amino)‐2‐oxoethyl)furan‐2‐carboselenoate]
SI L. infantum [1]: 3.29 | SI L. major (L. major promastigotes): 5.91

Reference: PMC12676205, “New Se‐Compounds With Antileishmanial, Antitumor, and Carbonic Anhydrase Inhibitory Properties” (Archiv Der Pharmazie, 2025)
